± gives the standard deviation of the averaged measurements. The list shows a part of the results.
compound: Nc1nc2c(ncn2[C@@H]2O[C@H](COP(=O)(O)OP(=O)(O)OP(=O)(O)O)[C@@H](O)[C@H]2O)c(=O)[nH]1 [guanosine triphosphate]; assay: NP40-soluble protein abundance relative to vehicle (solubility fold change) (ratio); higher = more soluble protein in presence of GTP; conditions: concentration: 2mM
Procedure, shortened: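 Crude Jurkat lysate, prepared by Dounce homogenisation, was exposed to eight concentrations from 0.1 to 10 mM for 10 min at room temperature and then 3 min at 37 °C. Solubilisation used 0.8% NP40 with benzonase for 60 min at 4 °C, followed by ultracentrifugation and TMT labelling of the supernatant for LC-MS/MS. After vsn normalisation of intensities, each value is the fold change against the detergent-processed vehicle within each replicate, across three independent experiments.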

Chains of the proteins cited; added tags and fusions are not shown. Lines headed by an entry give the natural chain unless they say otherwise; changes in a name come on top.
UniProt Q9NUJ1: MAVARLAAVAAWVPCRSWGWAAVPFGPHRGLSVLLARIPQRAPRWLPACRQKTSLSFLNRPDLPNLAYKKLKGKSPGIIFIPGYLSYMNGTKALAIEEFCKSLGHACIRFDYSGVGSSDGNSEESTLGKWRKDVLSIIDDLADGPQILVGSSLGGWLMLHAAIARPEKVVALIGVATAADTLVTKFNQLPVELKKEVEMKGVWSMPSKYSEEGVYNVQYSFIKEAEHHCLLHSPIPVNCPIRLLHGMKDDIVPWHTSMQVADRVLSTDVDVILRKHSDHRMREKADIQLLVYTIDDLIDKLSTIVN
UniProt Q9P1F3: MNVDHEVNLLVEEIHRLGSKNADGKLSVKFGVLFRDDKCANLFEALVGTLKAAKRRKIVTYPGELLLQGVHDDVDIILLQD
UniProt Q9ULR0: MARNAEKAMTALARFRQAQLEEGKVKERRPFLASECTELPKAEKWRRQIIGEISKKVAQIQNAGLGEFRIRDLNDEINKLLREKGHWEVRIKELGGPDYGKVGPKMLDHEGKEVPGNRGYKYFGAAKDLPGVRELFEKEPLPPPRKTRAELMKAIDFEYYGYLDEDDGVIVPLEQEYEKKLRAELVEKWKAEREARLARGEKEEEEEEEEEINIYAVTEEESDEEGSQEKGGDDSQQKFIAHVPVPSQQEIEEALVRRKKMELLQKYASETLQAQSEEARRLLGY
UniProt Q9UDR5: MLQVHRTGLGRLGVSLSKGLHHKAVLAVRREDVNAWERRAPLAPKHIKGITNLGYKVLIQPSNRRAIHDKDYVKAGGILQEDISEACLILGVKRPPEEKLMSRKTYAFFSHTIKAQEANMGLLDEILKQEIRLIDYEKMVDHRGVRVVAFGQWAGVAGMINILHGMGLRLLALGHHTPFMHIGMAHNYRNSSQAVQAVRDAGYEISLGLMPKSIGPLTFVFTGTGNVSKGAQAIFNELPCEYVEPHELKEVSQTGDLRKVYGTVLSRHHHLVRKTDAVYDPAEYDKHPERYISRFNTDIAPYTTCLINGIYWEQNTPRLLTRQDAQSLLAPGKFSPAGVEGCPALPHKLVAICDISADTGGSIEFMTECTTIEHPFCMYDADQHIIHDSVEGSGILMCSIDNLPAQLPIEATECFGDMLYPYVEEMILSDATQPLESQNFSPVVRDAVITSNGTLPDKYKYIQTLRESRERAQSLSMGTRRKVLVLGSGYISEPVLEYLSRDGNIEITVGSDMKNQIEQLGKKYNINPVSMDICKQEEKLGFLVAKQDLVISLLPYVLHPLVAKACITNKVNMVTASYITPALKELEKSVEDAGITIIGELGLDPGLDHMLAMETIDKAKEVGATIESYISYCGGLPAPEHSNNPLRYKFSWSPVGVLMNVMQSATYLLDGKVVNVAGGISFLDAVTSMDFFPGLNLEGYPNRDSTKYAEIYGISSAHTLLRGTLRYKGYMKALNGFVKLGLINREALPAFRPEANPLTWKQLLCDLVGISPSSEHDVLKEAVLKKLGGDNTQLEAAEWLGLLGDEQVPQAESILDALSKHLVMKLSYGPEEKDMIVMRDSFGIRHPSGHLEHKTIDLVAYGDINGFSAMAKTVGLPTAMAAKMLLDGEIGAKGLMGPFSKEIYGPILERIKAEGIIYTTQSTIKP
UniProt Q9UDW1: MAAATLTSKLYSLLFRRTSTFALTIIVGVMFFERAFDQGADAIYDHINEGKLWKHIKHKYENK
UniProt Q9UGU0: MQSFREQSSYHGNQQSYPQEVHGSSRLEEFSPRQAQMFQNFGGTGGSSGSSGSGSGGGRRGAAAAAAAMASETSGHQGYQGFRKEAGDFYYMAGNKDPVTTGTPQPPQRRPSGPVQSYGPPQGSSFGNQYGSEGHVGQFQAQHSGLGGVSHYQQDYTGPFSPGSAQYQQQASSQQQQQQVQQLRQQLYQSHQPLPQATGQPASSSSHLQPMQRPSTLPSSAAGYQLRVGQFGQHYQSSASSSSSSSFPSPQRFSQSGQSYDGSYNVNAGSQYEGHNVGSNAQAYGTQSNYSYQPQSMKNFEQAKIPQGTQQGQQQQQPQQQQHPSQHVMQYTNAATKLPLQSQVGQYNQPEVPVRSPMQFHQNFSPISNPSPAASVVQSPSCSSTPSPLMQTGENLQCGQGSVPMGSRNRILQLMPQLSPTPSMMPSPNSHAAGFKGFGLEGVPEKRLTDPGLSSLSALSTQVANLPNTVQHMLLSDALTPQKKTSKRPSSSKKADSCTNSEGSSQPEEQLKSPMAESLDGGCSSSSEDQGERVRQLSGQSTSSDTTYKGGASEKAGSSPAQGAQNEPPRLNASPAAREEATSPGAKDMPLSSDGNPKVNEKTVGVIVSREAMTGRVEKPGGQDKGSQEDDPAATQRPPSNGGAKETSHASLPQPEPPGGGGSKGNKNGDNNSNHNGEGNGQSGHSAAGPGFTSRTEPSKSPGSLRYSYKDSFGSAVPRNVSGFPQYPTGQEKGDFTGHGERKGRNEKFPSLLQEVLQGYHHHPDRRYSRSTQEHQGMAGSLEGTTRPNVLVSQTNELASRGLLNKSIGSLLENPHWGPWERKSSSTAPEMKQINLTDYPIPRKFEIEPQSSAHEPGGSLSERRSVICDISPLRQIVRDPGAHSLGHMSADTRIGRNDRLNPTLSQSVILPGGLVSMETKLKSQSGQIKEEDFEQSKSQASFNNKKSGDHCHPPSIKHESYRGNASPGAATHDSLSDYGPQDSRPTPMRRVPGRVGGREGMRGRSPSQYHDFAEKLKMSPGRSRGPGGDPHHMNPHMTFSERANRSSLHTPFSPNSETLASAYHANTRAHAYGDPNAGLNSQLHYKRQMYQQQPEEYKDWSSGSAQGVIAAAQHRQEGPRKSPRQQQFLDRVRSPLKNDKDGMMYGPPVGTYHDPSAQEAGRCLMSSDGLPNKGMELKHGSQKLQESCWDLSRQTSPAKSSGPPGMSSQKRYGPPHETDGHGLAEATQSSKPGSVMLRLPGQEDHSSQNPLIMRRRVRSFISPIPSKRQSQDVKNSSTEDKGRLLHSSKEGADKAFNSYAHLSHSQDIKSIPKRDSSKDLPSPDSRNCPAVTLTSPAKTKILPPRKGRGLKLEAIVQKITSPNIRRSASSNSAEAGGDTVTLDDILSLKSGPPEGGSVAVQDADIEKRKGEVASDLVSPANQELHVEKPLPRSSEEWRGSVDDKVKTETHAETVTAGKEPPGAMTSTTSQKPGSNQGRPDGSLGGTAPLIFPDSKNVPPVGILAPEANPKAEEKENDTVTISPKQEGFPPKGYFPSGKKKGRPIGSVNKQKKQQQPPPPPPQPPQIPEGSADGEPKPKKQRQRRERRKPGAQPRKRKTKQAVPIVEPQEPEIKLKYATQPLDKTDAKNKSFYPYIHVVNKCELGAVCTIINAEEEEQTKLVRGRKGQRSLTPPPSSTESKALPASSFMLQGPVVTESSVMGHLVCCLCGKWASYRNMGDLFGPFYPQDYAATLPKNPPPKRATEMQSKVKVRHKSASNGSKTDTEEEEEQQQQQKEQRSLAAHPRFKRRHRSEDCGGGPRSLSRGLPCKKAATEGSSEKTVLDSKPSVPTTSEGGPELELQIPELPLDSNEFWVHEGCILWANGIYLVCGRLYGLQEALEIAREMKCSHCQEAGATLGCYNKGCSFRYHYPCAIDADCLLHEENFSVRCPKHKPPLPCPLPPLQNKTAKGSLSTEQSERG
UniProt Q9NVX0: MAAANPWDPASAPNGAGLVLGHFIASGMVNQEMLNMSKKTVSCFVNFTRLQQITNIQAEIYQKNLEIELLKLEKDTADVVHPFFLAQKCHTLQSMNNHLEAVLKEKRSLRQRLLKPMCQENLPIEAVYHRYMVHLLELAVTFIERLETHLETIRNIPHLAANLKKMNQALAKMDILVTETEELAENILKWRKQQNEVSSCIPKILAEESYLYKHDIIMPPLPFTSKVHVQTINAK
UniProt Q9ULV4, whole entry: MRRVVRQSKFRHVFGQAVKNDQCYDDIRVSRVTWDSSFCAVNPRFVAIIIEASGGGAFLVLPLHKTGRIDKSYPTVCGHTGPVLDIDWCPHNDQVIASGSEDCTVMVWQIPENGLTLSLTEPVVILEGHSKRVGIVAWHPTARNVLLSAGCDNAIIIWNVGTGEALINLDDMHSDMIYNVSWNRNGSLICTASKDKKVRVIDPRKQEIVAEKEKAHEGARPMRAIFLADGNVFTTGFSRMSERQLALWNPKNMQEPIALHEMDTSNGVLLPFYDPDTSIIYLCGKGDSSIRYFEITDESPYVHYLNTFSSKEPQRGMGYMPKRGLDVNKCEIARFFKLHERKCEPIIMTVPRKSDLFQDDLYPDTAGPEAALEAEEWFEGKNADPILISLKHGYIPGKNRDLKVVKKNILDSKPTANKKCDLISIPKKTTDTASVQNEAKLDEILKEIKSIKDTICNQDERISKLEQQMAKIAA
UniProt Q9NZ43: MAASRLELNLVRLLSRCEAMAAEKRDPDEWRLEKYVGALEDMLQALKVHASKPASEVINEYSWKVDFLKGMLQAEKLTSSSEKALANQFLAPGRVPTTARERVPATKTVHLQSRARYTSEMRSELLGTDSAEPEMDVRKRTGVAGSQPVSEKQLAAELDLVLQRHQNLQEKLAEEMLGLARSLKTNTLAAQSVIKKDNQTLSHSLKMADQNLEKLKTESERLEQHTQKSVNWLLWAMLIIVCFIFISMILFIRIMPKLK
UniProt Q9P287, whole entry: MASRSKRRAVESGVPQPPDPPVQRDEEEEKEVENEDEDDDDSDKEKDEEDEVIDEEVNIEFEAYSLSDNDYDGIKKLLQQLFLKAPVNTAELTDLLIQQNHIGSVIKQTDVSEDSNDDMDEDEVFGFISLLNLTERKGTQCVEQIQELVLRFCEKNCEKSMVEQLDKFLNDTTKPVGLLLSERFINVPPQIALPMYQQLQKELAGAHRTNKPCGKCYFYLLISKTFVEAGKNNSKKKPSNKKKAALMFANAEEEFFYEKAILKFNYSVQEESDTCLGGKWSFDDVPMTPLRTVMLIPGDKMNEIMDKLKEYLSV
UniProt Q9UEE9, whole entry: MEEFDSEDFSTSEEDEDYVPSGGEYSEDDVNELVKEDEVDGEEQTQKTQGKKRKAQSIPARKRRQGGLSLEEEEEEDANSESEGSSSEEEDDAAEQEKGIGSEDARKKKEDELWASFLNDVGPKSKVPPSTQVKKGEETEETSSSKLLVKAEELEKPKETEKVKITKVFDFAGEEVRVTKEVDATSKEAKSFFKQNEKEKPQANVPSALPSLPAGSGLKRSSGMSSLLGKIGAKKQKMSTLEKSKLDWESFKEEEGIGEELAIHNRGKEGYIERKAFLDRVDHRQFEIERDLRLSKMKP
UniProt Q9UKY7: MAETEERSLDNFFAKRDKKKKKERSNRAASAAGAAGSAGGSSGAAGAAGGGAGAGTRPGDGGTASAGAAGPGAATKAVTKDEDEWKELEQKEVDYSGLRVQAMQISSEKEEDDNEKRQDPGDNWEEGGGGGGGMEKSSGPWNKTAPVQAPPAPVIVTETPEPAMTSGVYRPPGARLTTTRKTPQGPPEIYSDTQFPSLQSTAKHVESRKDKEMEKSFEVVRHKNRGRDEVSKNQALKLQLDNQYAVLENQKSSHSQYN
UniProt Q9UIV1, whole entry: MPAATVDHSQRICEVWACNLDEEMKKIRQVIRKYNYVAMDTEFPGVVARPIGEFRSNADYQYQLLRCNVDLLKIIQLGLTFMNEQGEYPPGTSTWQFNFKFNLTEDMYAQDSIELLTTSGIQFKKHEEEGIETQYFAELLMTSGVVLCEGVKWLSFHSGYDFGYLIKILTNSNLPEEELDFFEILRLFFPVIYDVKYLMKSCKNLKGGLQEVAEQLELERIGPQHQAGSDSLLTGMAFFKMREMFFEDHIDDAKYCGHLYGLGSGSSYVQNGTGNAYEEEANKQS
UniProt Q9NUQ9: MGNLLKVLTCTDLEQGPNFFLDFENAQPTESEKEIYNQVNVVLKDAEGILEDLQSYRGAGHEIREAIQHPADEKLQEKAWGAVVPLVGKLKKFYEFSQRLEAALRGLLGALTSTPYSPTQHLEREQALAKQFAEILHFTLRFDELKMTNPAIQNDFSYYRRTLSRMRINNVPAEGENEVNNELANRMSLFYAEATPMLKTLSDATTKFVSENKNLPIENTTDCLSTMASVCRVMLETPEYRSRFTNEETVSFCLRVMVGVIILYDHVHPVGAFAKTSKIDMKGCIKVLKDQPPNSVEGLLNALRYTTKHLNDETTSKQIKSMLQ
UniProt Q9NUQ3: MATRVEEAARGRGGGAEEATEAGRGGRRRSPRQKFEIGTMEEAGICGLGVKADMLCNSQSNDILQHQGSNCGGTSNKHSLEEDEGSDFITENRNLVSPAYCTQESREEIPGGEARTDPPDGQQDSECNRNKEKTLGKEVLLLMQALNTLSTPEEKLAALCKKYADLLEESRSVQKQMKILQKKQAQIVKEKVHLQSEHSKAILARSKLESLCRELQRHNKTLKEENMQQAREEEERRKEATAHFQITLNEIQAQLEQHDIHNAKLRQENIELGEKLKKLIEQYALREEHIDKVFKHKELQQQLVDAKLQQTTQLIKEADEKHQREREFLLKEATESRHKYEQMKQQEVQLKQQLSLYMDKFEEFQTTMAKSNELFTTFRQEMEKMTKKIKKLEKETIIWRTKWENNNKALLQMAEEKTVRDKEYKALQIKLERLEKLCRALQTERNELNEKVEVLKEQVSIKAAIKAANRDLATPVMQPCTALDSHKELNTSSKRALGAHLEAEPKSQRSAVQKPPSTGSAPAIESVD

Target	NP40-soluble protein abundance
UniProt Q9NUJ1 and related entries	0.983 ± 0.17
UniProt Q9P1F3	0.751 ± 0.24
UniProt Q9ULR0 and related entries	1.1 ± 0.11
AASS (UniProt Q9UDR5)	0.987 ± 0.086
UniProt Q9UDW1	0.919 ± 0.1
UniProt Q9UGU0 and related entries	1.15 ± 0.04
UniProt Q9NVX0 and related entries	1.05 ± 0.083
UniProt Q9ULV4 and related entries	1.26 ± 0.17
USE1 (UniProt Q9NZ43)	1.06 ± 0.032
UniProt Q9P287 and related entries	0.953 ± 0.059
UniProt Q9UKZ1	2.81 ± 2.7

same assay, conditions: concentration: 4mM

Target	NP40-soluble protein abundance
TPX2 (UniProt Q9ULW0)	1.33 ± 0.066
MRPL39 (UniProt Q9NYK5)	1.32 ± 0.35
UniProt Q9ULH0 and related entries	1.35 ± 0.38
UniProt Q9NZJ4 and related entries	1.05 ± 0.11
CFDP1 (UniProt Q9UEE9)	0.854 ± 0.17
CDV3 (UniProt Q9UKY7)	0.889 ± 0.093
CGGBP1 (UniProt Q9UFW8)	1.07 ± 0.04
PLXNA1 (UniProt Q9UIW2)	1.02 ± 0.082
CDC23 (UniProt Q9UJX2)	1.2 ± 0.21
FAM118A (UniProt Q9NWS6)	0.884 ± 0.067
UniProt Q9UBL3 and related entries	1.02 ± 0.011
UniProt Q9NXR5 and related entries	0.985 ± 0.072
UniProt Q9NY12 and related entries	1.51 ± 0.24
UniProt Q9UJX5 and related entries	1.25 ± 0.27
FASTKD2 (UniProt Q9NYY8)	0.946 ± 0.063
UniProt Q9UH92 and related entries	1.01 ± 0.096
MTPAP (UniProt Q9NVV4)	1.33 ± 0.062
UniProt Q9NX55	1 ± 0.097
UniProt Q9UIV1 and related entries	1.22 ± 0.22

Target	NP40-soluble protein abundance
UniProt Q9NV56	1.03 ± 0.022
UniProt Q9NUQ9 and related entries	0.849 ± 0.11
UniProt Q9UBI1 and related entries	0.978 ± 0.082
CPSF2 (UniProt Q9P2I0)	1.19 ± 0.13
UniProt Q9NUQ3	0.928 ± 0.075
CHMP5 (UniProt Q9NZZ3)	0.844 ± 0.065
COMMD9 (UniProt Q9P000)	0.98 ± 0.093
UniProt Q9UK53-2|A0A0C4DFW2|Q9UK53 and related entries	1.08 ± 0.24
UniProt Q9NUJ1 and related entries	0.955 ± 0.12
UniProt Q9P1F3	0.794 ± 0.29
UniProt Q9ULR0 and related entries	1.06 ± 0.17
AASS (UniProt Q9UDR5)	0.97 ± 0.091
UniProt Q9UDW1	0.908 ± 0.051
UniProt Q9UGU0 and related entries	1.24 ± 0.11
UniProt Q9NVX0 and related entries	1.01 ± 0.12
UniProt Q9ULV4 and related entries	1.42 ± 0.22
USE1 (UniProt Q9NZ43)	1.03 ± 0.037
UniProt Q9P287 and related entries	0.99 ± 0.083
UniProt Q9UKZ1	1.26 ± 0.14

same assay, conditions: concentration: 6mM

Target	NP40-soluble protein abundance
TPX2 (UniProt Q9ULW0)	1.35 ± 0.081
MRPL39 (UniProt Q9NYK5)	1.3 ± 0.37
UniProt Q9ULH0 and related entries	1.29 ± 0.28
UniProt Q9NZJ4 and related entries	1.04 ± 0.06
CFDP1 (UniProt Q9UEE9)	0.894 ± 0.18
CDV3 (UniProt Q9UKY7)	1 ± 0.092
CGGBP1 (UniProt Q9UFW8)	1.11 ± 0.058
PLXNA1 (UniProt Q9UIW2)	0.97 ± 0.092
CDC23 (UniProt Q9UJX2)	1.19 ± 0.22
FAM118A (UniProt Q9NWS6)	0.891 ± 0.12
UniProt Q9UBL3 and related entries	1.04 ± 0.024
UniProt Q9NXR5 and related entries	1.01 ± 0.042
UniProt Q9NY12 and related entries	1.72 ± 0.19
UniProt Q9UJX5 and related entries	1.23 ± 0.32
FASTKD2 (UniProt Q9NYY8)	0.941 ± 0.017
UniProt Q9UH92 and related entries	0.944 ± 0.14
MTPAP (UniProt Q9NVV4)	1.42 ± 0.055
UniProt Q9NX55	1.04 ± 0.081
UniProt Q9UIV1 and related entries	1.28 ± 0.31

Target	NP40-soluble protein abundance
UniProt Q9NV56	1.06 ± 0.054
UniProt Q9NUQ9 and related entries	0.866 ± 0.098
UniProt Q9UBI1 and related entries	1.01 ± 0.052
CPSF2 (UniProt Q9P2I0)	1.21 ± 0.13
UniProt Q9NUQ3	0.949 ± 0.095
CHMP5 (UniProt Q9NZZ3)	0.896 ± 0.091
COMMD9 (UniProt Q9P000)	0.964 ± 0.1
UniProt Q9UK53-2|A0A0C4DFW2|Q9UK53 and related entries	1.18 ± 0.13
UniProt Q9NUJ1 and related entries	0.983 ± 0.13
UniProt Q9P1F3	0.729 ± 0.27
UniProt Q9ULR0 and related entries	1.06 ± 0.097
AASS (UniProt Q9UDR5)	0.953 ± 0.11
UniProt Q9UDW1	0.824 ± 0.047
UniProt Q9UGU0 and related entries	1.34 ± 0.14
UniProt Q9NVX0 and related entries	0.996 ± 0.14
UniProt Q9ULV4 and related entries	1.53 ± 0.3
USE1 (UniProt Q9NZ43)	1.05 ± 0.017
UniProt Q9P287 and related entries	0.913 ± 0.069
UniProt Q9UKZ1	1.24 ± 0.11

From the supplement of paper PMC6411743
